Measurements reported in PubChem BioAssay AID652272 (Drosophila RNAi Screening Center, 2013).
Aim: 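Genes whose knock-down decreases or increases Hedgehog reporter output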 (primary screen). Cell system: Drosophila clone 8 (Cl8) cells. Reagents: long dsRNA against Drosophila genes. Detection: 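Plate reader light from a firefly reporter under a ptc promoter fragment that responds to Hedgehog, with Renilla light as transfection reference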. Reading the numbers: firefly Hh reporter signal: higher = more ptc reporter light; Renilla reference signal: higher = more Renilla control light. Rule for the call: 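Hit when the z-score averaged over two replicates is under -2 or over +3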. Calls: active = hit: reporter lowered or raised; inactive = not a hit.
In all, the deposit lists about 21,000 reagents; shown is a random part of those that have a named target and a result. Of all reagents, 503 (2.4%) got an active call. 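Raw plate light values, not normalised; calls rest on replicate z-scores that were not deposited; hits include reporter decreases as well as increases.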 A number with no mark means an inactive call. A plus sign joins genes that one reagent is predicted to hit. Reagent sequences are not shown. The record does not give: the amount of reagent, the time to read-out.

| gene | dsRNA | firefly Hh reporter signal, replicate 1 | firefly Hh reporter signal, replicate 2 | firefly Hh reporter signal, replicate 3 | Renilla reference signal, replicate 1 | Renilla reference signal, replicate 2 |
| --- | --- | --- | --- | --- | --- | --- |
| B52 | DRSC14121 | 2.62e5 | 2.13e5 | – | 10146 | 6880 |
| TAF1B | DRSC16001 | 1.24e5 | 80370 | – | 5805 | 3200 |
| Nnf1a | DRSC06394 | 60080 | 41267 | – | 2176 | 2939 |
| CG34328 | DRSC19256 | 5.42e5 | 1.83e5 | – | 31760 | 4278 |
| Cyp40 (Cyclophilin 40) | DRSC10980 | 1.07e5 | 59184 | – | 4540 | 2710 |
| Mvk + CG33672 + spt4 | DRSC05356 | 1.37e5 | 2.36e5 | – | 4074 | 9384 |
| Mvk + CG33672 + spt4 | DRSC06628 | 71417 | 43325 | – | 3114 | 1773 |
| CG1896 | DRSC15397 | 94998 | 65125 | – | 2242 | 2007 |
| CG13133 | DRSC02230 | 1.17e5 | 67233 | – | 3011 | 6761 |
| sm (smooth) | DRSC05795 | 1.54e5 | 2.74e5 | – | 4321 | 11144 |
| sm (smooth) | DRSC07686 | 89245 | 47995 | – | 4251 | 2380 |
| CG34267 | DRSC07881 | 91376 | 1.35e5 | – | 2694 | 5815 |
| Cse1 (Chromosome segregation 1) | DRSC03287 | 34264 | 26727 | – | 1717 | 1385 |
| CG10710 | DRSC09784 | 46829 | 36928 | 40807 | 3845 | 2771 |
| Hmu (Hemomucin) | DRSC16705 | 80212 | 1.06e5 | – | 2656 | 3611 |
| CG3294 | DRSC00590 | 61456 | 47898 | – | 2353 | 1977 |
| ND1 (retired record) | DRSC21273 | 1.80e5 | 2.83e5 | – | 5952 | 12706 |
| CG42818 | DRSC01963 | 1.27e5 | 1.08e5 | – | 3219 | 7910 |
| CG14855 | DRSC14979 | 1.27e5 | 81877 | – | 4707 | 2660 |
| ndl (nudel) | DRSC11374 | 49894 | 75271 | – | 4055 | 4997 |
| Rpt1 (Regulatory particle triple-A ATPase 1) | DRSC07542 | 42682 | 31648 | – | 2789 | 2109 |
| ppk26 (pickpocket 26) | DRSC10991 | 51584 | 40732 | – | 5284 | 2740 |
| sick (sickie) | DRSC02090 | 56986 | 51533 | – | 1506 | 4987 |
| sick (sickie) | DRSC02300 | 61867 | 64544 | – | 1714 | 5498 |
| sick (sickie) | DRSC02301 | 65255 | 53536 | – | 1789 | 5200 |
| sick (sickie) | DRSC02302 | 72954 | 41297 | – | 2085 | 3560 |
| sick (sickie) | DRSC02303 | 76834 | 84194 | – | 1340 | 4157 |
| sick (sickie) | DRSC02306 | 77986 | 54921 | – | 1040 | 4461 |
| CG42296 | DRSC00394 | 79347 | 95869 | – | 1984 | 2400 |
| Qsox1 (Quiescin sulfhydryl oxidase 1) | DRSC06878 | 1.37e5 | 71888 | – | 3952 | 5229 |
| CG13332 | DRSC06367 | 1.13e5 | 87335 | – | 2810 | 7080 |
| ste24c + CR30461 (retired record) | DRSC05639 | 98480 | 2.25e5 | – | 2841 | 9321 |
| ste24c + CR30461 (retired record) | DRSC07316 | 87936 | 58658 | – | 2214 | 3965 |
| CG42346 | DRSC20622 | 85430 | 2.13e5 | – | 2963 | 9878 |
| CG42346 | DRSC20644 | 77549 | 1.82e5 | – | 2588 | 7964 |
| rhi (rhino) | DRSC05996 | 70907 | 47616 | – | 1881 | 3159 |
| CG13443 | DRSC06403 | 1.05e5 | 46953 | – | 4184 | 3914 |
| CG6073 | DRSC15962 | 1.79e5 | 7.46e5 | 1.25e5 | 4309 | 45058 |
| mre11 (meiotic recombination 11) | DRSC03570 | 1.59e5 | 8.28e5 | 1.49e5 | 5949 | 45056 |

A stretch from the list above:
| gene | dsRNA | firefly Hh reporter signal, replicate 1 | firefly Hh reporter signal, replicate 2 | firefly Hh reporter signal, replicate 3 | Renilla reference signal, replicate 1 | Renilla reference signal, replicate 2 |
| --- | --- | --- | --- | --- | --- | --- |
| B52 | DRSC14121 | 2.62e5 | 2.13e5 | – | 10146 | 6880 |
| TAF1B | DRSC16001 | 1.24e5 | 80370 | – | 5805 | 3200 |
| Nnf1a | DRSC06394 | 60080 | 41267 | – | 2176 | 2939 |
| CG34328 | DRSC19256 | 5.42e5 | 1.83e5 | – | 31760 | 4278 |
| Cyp40 (Cyclophilin 40) | DRSC10980 | 1.07e5 | 59184 | – | 4540 | 2710 |
| Mvk + CG33672 + spt4 | DRSC05356 | 1.37e5 | 2.36e5 | – | 4074 | 9384 |
